± gives the standard deviation of the averaged measurements. This is a selection; strong and weak results do not stand in their true shares.
Compound: Nc1ncnc2c1ncn2[C@@H]1O[C@H](COP(=O)(O)OP(=O)(O)NP(=O)(O)O)[C@@H](O)[C@H]1O [adenylyl imidodiphosphate]
Test: NP40-soluble protein abundance relative to vehicle (solubility fold change) (ratio); higher = more soluble protein in presence of AMP-PNP
In short: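 Crude Jurkat lysate, prepared by Dounce homogenisation, was exposed to eight concentrations from 0.1 to 10 mM for 10 min at room temperature and then 3 min at 37 °C. Solubilisation used 0.8% NP40 with benzonase for 60 min at 4 °C, followed by ultracentrifugation and TMT labelling of the supernatant for LC-MS/MS. After vsn normalisation of intensities, each value is the fold change against the detergent-processed vehicle within each replicate, across three independent experiments.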

Target	NP40-soluble protein abundance (concentration: 1mM)	NP40-soluble protein abundance (concentration: 2mM)	NP40-soluble protein abundance (concentration: 4mM)	NP40-soluble protein abundance (concentration: 6mM)	NP40-soluble protein abundance (concentration: 8mM)	NP40-soluble protein abundance (concentration: 10mM)
A0A0A0MRF6|Q99996 and related entries (UniProt Q99996)	1.03 ± 0.064	1.04 ± 0.026	1.04 ± 0.071	0.982 ± 0.062	0.944 ± 0.047	0.961 ± 0.059
A0A087WZV8|A0A0G2JN66 (UniProt P01850)	1.03 ± 0.05	0.913 ± 0.028	1.01 ± 0.048	0.979 ± 0.051	1.04 ± 0.013	1.02 ± 0.032
A0A0J9YW36|Q9NZ72 and related entries (UniProt Q9NZ72)	0.9817 ± 0.0081	1.02 ± 0.048	0.977 ± 0.02	0.978 ± 0.037	0.964 ± 0.033	0.945 ± 0.016
A0A096LPC5|A0A0A0MR88|Q9Y4E1 and related entries (UniProt Q9Y4E1)	1.01 ± 0.015	1.07 ± 0.069	1.03 ± 0.059	1.027 ± 0.01	0.998 ± 0.026	0.991 ± 0.044
A0A087WZ62	0.976 ± 0.026	0.963 ± 0.027	0.931 ± 0.022	0.952 ± 0.014	0.946 ± 0.028	0.936 ± 0.017
A0A087X1I8|Q7Z3E5 and related entries (UniProt Q7Z3E5)	0.978 ± 0.035	0.95 ± 0.068	0.964 ± 0.021	0.963 ± 0.033	0.973 ± 0.015	0.954 ± 0.015
A0A0A6YYJ5|E9PLY5 and related entries (UniProt Q9UPN3+H3BQK9+H3BPE1+E9PLY5)	1.01 ± 0.026	1.04 ± 0.032	1.01 ± 0.018	0.979 ± 0.021	0.9526 ± 0.0012	0.976 ± 0.013
A0A087WW88|Q9UQN3 (UniProt Q9UQN3)	1.03 ± 0.024	1.03 ± 0.0098	1.03 ± 0.03	1.04 ± 0.018	1.03 ± 0.042	1.03 ± 0.014
A0A0C4DGZ0 (UniProt P24928)	0.995 ± 0.05	0.946 ± 0.091	0.99 ± 0.059	0.961 ± 0.077	0.961 ± 0.08	0.944 ± 0.11
A0A087X0W8|Q04206 and related entries (UniProt Q04206)	0.988 ± 0.025	1.01 ± 0.023	1.01 ± 0.018	1 ± 0.013	0.983 ± 0.044	0.994 ± 0.051
A0A0G2JLB3|A0A0G2JNZ0|A0A0G2JNZ5|P04062 and related entries (UniProt P04062)	0.967 ± 0.01	0.98 ± 0.02	0.988 ± 0.062	0.999 ± 0.027	0.972 ± 0.021	0.998 ± 0.045
A0A0A0MTP3|Q99550 and related entries (UniProt Q99550)	0.963 ± 0.082	0.971 ± 0.032	0.965 ± 0.013	0.97 ± 0.082	0.963 ± 0.09	0.977 ± 0.079
A0A0A0MT22|P08575 and related entries (UniProt P08575)	1.01 ± 0.019	1.03 ± 0.066	0.992 ± 0.037	0.9958 ± 0.007	0.98 ± 0.03	0.985 ± 0.023
A0A0A0MSV9|A0A0G2JH37|A0A0G2JKZ1|A2AB90 and related entries (UniProt O15533)	1.03 ± 0.076	1.03 ± 0.047	1.07 ± 0.064	1.01 ± 0.022	1.03 ± 0.046	1.01 ± 0.073
A0A0A0MQT4|Q5QP82 and related entries (UniProt Q5QP82)	0.99 ± 0.016	0.961 ± 0.013	0.983 ± 0.036	1.02 ± 0.088	1.02 ± 0.1	1.03 ± 0.14
A0A0C4DFY7|Q6UWW8 (UniProt Q6UWW8)	1.03 ± 0.033	1.02 ± 0.022	1.02 ± 0.056	1.01 ± 0.034	1.03 ± 0.029	1.02 ± 0.015
A0A0A6YYI3|A0A0B4J1V8|Q9NQ55 and related entries (UniProt Q9NQ55)	0.993 ± 0.015	0.991 ± 0.023	1.006 ± 0.003	0.957 ± 0.013	0.956 ± 0.015	0.967 ± 0.025
A0A087X0C8|O15484 and related entries (UniProt O15484)	1.01 ± 0.056	0.983 ± 0.034	1 ± 0.037	1.02 ± 0.019	1 ± 0.03	1.01 ± 0.035
A0A087WXK1|D6REL5 and related entries (UniProt Q6UWZ7)	0.992 ± 0.011	0.998 ± 0.014	1.01 ± 0.021	1 ± 0.053	1.01 ± 0.031	0.968 ± 0.015
A0A0D9SEU5|Q6VN20 and related entries (UniProt Q6VN20)	0.981 ± 0.077	1.013 ± 0.01	0.999 ± 0.064	0.956 ± 0.099	0.918 ± 0.075	0.937 ± 0.089
A2A2V1 and related entries (UniProt P04156+A2A2V1)	1.01 ± 0.029	1.08 ± 0.066	1.02 ± 0.02	1.044 ± 0.01	1.03 ± 0.018	1.01 ± 0.016
A0A087X1Z3|Q9UL46 (UniProt Q9UL46)	0.967 ± 0.097	1.09 ± 0.13	0.997 ± 0.11	1.01 ± 0.13	1.03 ± 0.063	0.962 ± 0.11
A0A087WY71|Q96CW1 and related entries (UniProt Q96CW1)	0.966 ± 0.076	0.881 ± 0.055	1.02 ± 0.11	1.12 ± 0.094	1.22 ± 0.041	1.13 ± 0.12
A0A0D9SF54|A0A0D9SGF6|Q13813 and related entries (UniProt Q13813)	1.04 ± 0.051	1.06 ± 0.044	1.04 ± 0.044	1.08 ± 0.054	1.06 ± 0.039	1.08 ± 0.059
A0A0A0MQU0|Q9BV38 and related entries (UniProt Q9BV38)	0.986 ± 0.037	0.996 ± 0.1	0.958 ± 0.047	0.972 ± 0.071	0.972 ± 0.054	0.957 ± 0.071
A0A0A0MSY9|Q92800 and related entries (UniProt Q92800)	0.978 ± 0.017	0.97 ± 0.022	0.9794 ± 0.0047	0.994 ± 0.016	0.999 ± 0.019	1.001 ± 0.0058
A0A0D9SFR6|Q86XP1 and related entries (UniProt Q86XP1)	1.03 ± 0.03	1.01 ± 0.054	1.03 ± 0.054	0.984 ± 0.032	0.965 ± 0.03	0.969 ± 0.033
A0A0U1RQT7|A0A0U1RQY7|Q8IXA3 and related entries (UniProt Q9HCP0)	1.02 ± 0.039	0.995 ± 0.052	0.999 ± 0.027	1.01 ± 0.033	1.04 ± 0.046	1.01 ± 0.031

Shown comma-delimited: entries from further up.
Target,NP40-soluble protein abundance (concentration: 1mM),NP40-soluble protein abundance (concentration: 2mM),NP40-soluble protein abundance (concentration: 4mM),NP40-soluble protein abundance (concentration: 6mM),NP40-soluble protein abundance (concentration: 8mM),NP40-soluble protein abundance (concentration: 10mM)
A0A087X1Z3|Q9UL46 (UniProt Q9UL46),0.967 ± 0.097,1.09 ± 0.13,0.997 ± 0.11,1.01 ± 0.13,1.03 ± 0.063,0.962 ± 0.11
A0A087WY71|Q96CW1 and related entries (UniProt Q96CW1),0.966 ± 0.076,0.881 ± 0.055,1.02 ± 0.11,1.12 ± 0.094,1.22 ± 0.041,1.13 ± 0.12

From the supplement of paper PMC6411743
